US20260193623
Construct, isoform or probe ends are uncertain for at least one entry. For some of these results: Negatives hold for the conditions tested. Protein sequences can lack the tags named with them.

How the values were obtained:
Assay in all cases: activity assay
MG158-1 = test system: T1, MG158-1; conditions: tested, not listed as active; protein translated in vitro; protein details: N-terminal Strep; label: 5'-FAM primer; DNA:RNA hybrid
T1 sequence (limits assumed): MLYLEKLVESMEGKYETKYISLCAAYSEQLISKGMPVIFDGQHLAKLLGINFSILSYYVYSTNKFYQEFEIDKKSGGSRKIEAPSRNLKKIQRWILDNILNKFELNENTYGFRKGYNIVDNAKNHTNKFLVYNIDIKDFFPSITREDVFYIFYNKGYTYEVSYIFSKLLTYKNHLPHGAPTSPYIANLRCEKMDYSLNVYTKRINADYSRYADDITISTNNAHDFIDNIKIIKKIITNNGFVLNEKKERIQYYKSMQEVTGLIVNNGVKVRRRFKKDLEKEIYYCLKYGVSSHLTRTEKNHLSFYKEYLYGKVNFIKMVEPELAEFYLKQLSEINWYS

MG153-18 = test system: T2, MG153-18; conditions: primer extension gel; 3 mM MgCl2, 37 C; protein translated in vitro; protein details: N-terminal Strep; label: 5'-FAM primer; DNA:RNA hybrid
T2 sequence (limits assumed): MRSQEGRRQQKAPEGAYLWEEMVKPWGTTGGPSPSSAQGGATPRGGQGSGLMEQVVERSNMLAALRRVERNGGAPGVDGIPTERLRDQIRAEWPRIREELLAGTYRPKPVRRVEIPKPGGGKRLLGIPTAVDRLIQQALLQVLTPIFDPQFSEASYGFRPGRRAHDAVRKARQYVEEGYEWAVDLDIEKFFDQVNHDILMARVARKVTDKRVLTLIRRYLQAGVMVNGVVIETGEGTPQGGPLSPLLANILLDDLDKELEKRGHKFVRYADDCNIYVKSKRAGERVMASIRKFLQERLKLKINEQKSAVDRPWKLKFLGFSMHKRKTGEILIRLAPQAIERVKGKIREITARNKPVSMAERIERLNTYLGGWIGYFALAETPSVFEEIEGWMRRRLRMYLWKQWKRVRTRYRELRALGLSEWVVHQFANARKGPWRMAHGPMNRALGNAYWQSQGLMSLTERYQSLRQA

MG160-3 = test system: T3, MG160-3; conditions: primer extension gel and qPCR; protein translated in vitro; protein details: N-terminal Strep; label: 5'-FAM primer; DNA:RNA hybrid
T3 sequence: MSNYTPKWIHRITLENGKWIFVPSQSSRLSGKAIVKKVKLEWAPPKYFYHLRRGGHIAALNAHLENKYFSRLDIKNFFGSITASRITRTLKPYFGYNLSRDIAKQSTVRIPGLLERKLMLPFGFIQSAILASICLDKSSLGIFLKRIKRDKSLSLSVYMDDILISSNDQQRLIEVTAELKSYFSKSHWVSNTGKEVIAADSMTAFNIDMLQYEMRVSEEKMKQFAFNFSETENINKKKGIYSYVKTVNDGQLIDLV

MG173-8 = test system: T4, MG173-8; conditions: primer extension on general RNA; protein translated in vitro; protein details: N-terminal Strep; label: 5'-FAM primer; DNA:RNA hybrid
T4 sequence (limits assumed): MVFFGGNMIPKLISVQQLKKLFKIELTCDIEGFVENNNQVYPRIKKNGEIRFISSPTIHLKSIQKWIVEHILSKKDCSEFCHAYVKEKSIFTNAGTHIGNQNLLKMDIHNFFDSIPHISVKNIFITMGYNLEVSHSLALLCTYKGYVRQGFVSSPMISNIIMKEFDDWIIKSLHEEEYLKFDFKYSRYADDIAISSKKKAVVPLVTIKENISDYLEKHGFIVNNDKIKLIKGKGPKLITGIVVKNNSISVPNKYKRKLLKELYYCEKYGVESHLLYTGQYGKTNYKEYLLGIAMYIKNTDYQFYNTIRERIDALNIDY

MG159-1 = test system: T5, MG159-1; conditions: primer extension on general RNA; protein translated in vitro; protein details: N-terminal Strep; label: 5'-FAM primer; DNA:RNA hybrid
T5 sequence: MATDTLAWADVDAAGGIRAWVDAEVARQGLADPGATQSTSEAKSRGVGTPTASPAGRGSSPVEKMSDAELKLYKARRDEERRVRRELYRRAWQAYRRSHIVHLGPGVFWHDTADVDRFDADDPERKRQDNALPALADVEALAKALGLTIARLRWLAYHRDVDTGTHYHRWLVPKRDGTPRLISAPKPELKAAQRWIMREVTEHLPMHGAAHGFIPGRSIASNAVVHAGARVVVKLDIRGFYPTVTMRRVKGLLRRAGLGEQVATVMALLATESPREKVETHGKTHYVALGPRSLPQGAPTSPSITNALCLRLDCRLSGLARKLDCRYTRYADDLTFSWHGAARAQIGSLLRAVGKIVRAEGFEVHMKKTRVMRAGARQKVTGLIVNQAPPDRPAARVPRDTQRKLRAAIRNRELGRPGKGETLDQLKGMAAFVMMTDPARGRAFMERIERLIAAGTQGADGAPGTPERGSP

MG153-35 = test system: T6, MG153-35; conditions: primer extension gel; 3 mM MgCl2, 37 C; protein translated in vitro; protein details: N-terminal Strep; label: 5'-FAM primer; DNA:RNA hybrid
T6 sequence (limits assumed): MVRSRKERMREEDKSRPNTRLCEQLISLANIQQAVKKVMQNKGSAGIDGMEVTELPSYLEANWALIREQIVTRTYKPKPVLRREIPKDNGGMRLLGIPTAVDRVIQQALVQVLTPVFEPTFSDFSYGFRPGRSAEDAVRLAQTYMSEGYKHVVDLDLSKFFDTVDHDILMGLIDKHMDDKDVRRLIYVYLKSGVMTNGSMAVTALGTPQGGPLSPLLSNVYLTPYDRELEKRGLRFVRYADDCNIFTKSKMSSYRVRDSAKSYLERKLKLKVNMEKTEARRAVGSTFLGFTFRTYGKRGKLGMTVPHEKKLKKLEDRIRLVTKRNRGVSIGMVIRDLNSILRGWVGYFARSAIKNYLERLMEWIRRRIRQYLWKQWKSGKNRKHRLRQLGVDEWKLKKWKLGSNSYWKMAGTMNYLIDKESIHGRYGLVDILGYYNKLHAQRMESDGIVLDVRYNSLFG

MG165-1 = test system: T7, MG165-1; conditions: primer extension gel; protein translated in vitro; protein details: N-terminal Strep; label: 5'-FAM primer; DNA:RNA hybrid
T7 sequence (limits assumed): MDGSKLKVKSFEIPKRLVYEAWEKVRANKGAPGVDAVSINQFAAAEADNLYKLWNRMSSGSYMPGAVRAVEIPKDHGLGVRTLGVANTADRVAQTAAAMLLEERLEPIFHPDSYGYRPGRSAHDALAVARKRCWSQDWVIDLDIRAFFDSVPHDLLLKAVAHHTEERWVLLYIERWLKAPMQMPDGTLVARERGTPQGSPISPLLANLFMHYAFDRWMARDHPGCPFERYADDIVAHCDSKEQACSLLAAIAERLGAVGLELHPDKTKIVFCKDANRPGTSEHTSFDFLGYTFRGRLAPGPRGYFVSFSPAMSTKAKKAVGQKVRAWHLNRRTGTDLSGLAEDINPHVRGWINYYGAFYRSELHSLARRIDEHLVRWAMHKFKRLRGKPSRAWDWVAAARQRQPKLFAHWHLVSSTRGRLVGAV

## GGCAAACCGCCTCTCCCCGCGCGTTGGCCGATTCATTAATGCAGCTGGCACGACAGGTTTCCCGACTGGAAAGGAGACCCGGGCAGTGAGCGCAACGGGTCTCCAATTTAAGCCAGCCCCGACACCCGCCAACACCCGCTGACGCGCCCTGACGGGCTTGTCTGCTCCCGGCATCCGCTTACAGACAAGCTGTGACCGTCTC / GAGACGGTCACAGCTTGTCTG [202-nt RNA template annealed to DNA primer]
MG158-1
  activity on this sequence: not active
MG153-18
  activity on this sequence: active
MG160-3
  activity on this sequence: active
MG173-8
  activity on this sequence: active
MG159-1
  activity on this sequence: active
MG153-35
  activity on this sequence: active
MG165-1
  activity on this sequence: active
